# According to PubChem BioAssay AID651768 (National Center for Advancing Translational Sciences (NCATS), 2012):
# Sequences of proteins named here, by UniProt entry; tags and fusion partners are left off.
# UniProt Q14191, whole entry, looked up: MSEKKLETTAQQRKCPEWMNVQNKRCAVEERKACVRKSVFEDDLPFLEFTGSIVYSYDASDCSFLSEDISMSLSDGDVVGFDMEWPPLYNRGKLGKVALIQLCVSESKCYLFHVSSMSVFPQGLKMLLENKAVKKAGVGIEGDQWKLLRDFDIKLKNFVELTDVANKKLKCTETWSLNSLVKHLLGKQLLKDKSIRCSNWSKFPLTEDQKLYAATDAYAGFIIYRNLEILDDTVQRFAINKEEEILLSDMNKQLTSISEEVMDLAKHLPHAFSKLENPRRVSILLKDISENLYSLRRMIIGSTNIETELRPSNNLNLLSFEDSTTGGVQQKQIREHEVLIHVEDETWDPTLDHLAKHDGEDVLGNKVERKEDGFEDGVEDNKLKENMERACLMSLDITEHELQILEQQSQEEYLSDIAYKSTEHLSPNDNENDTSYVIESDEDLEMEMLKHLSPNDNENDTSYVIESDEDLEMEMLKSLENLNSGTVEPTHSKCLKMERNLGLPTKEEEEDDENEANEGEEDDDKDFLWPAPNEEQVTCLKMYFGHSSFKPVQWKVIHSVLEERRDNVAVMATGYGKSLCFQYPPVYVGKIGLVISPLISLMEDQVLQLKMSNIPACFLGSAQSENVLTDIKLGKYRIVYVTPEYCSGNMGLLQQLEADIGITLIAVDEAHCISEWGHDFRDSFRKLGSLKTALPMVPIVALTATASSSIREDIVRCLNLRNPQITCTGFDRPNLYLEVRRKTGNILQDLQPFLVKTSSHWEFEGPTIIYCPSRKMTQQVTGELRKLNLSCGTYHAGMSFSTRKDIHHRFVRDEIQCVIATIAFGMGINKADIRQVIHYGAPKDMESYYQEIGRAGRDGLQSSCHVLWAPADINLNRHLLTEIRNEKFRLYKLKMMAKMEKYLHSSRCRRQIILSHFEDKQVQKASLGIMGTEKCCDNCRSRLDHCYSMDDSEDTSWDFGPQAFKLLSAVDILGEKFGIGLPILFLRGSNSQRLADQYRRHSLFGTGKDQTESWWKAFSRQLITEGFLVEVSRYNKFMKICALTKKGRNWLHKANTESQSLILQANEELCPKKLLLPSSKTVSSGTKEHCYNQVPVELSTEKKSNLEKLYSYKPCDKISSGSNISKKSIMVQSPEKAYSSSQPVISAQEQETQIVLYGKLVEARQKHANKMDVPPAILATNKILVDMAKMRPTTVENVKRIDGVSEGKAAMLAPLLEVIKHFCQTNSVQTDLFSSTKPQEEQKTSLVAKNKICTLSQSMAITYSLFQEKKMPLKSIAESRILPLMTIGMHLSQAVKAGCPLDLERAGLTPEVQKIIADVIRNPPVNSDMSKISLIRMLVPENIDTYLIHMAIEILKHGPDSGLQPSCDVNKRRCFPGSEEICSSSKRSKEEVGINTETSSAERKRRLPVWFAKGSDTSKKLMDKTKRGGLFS
# The whole screen tested about 360,000 compounds, of which about 1,700 (0.47%) were called active. This list was built around the results that the source calls inconclusive (neither active nor inactive); the mix of calls is not that of the screen. Calls come from the whole dose curve; as a rule, active = well fitted inhibition curve with a large enough effect; inconclusive = small, poorly fitted or top-dose-only effect; inactive = no such curve, though single readings can be large or run the other way. Potencies of inconclusive entries are doubtful fits and often do not repeat.
# Target: Bifunctional 3'-5' exonuclease/ATP-dependent helicase WRN (Homo sapiens) (UniProt Q14191)
# Experiment: qHTS for Inhibitors of WRN Helicase; note: nearly all actives have a fitted effect of over 55% in size
# Conditions: WRN helicase unwinding, fluorescent forked duplex, kinetic; activity change, negative = inhibition: at 114 µM (top of the series) unless noted
# Summary of the method: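 Kinetic red-fluorescence monitoring (525/598 nm) tracks WRN helicase activity after 100 nM fluorophore-quencher forked duplex and 2 mM ATP are added to 20 nM enzyme pretreated 15 min at room temperature with compound.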
# % is set by controls: 0 for no effect and ±100 for the full control effect; potency is the fitted concentration of half-maximal effect.
Compound,Potency,"activity change, negative = inhibition"
Cc1ccc(NC(=O)CN2C(=O)S/C(=C\c3cc(C)n(-c4cccc(C(=O)O)c4)c3C)C2=O)cc1,"inconclusive: 50.1 µM [inhibitor, partial curve]",
CCOc1ccc(Oc2c(C)oc3cc(O)ccc3c2=O)cc1,,inactive: 8.04%
O=C(Nc1ccccc1F)C1CCCN(S(=O)(=O)c2ccccc2)C1 (stereo not drawn),active: 79.4 µM,
O=C(O)/C(=C\c1ccco1)NC(=O)c1cccc2ccccc12,,inactive: -15.5%
N#C/C(=C\c1ccc(/C=C(/C#N)c2nn(CCO)c(N)c2C#N)cc1)c1nn(CCO)c(N)c1C#N,active: 56.2 µM,
O=[N+]([O-])c1cccn2cc(-c3ccc(Br)cc3)nc12,"inconclusive: 39.8 µM [inhibitor, full curve, poor fit]",
O=[N+]([O-])c1ccccc1-c1ccc(C(=S)N2CCCC2)o1,"inconclusive: 89.1 µM [inhibitor, single point]",
O=Cc1coc2ccc3ccccc3c2c1=O,"inconclusive: 12.6 µM [inhibitor, full curve]",
COc1ccc(CC(C)NS(=O)(=O)c2ccc3c(c2)CCN3S(C)(=O)=O)cc1OC (stereo not drawn),,inactive: -6.23%
CN(CC(=O)Nc1cccc(F)c1)C(=O)c1cccc(-n2cccc2)c1,active: 31.6 µM,
O=C(/C=C/c1ccccc1)c1cc(Br)ccc(=O)c1O,"inconclusive: 18.9 µM [inhibitor, partial curve]",
COc1ccc(O)c(C(=O)c2cc(SCC(=O)O)c3nc4sc5c(c4c(=O)n3c2)CCCC5)c1,active: 25.1 µM,
CC(C)(C)c1ccc(S(=O)(=O)/N=C2\C=C(NS(=O)(=O)c3ccccc3)C(=O)c3ccccc32)cc1,"inconclusive: 44.7 µM [inhibitor, partial curve]",
CCNC(=O)C1(C)CCCN(C(=O)c2ccc(OC)c(F)c2)C1 (stereo not drawn),,inactive: -4.01%
O=c1oc(-c2cccnc2)nc2ccccc12,,inactive: -26.3%
Cc1n(CC(O)COCc2ccccc2)c2ccccc2[n+]1C (stereo not drawn),"inconclusive: 12.6 µM [inhibitor, single point]",
CC(=O)Nc1ccc(C=NNc2ccc(S(=O)(=O)Nc3ccccc3C(=O)O)cc2[N+](=O)[O-])cc1,"inconclusive: 3.55 µM [inhibitor, full curve, poor fit]",
O=C(N/N=C/c1ccc[nH]1)c1ccccc1O,,inactive: -0.508%
Cc1occc1C(=O)O/N=C(\N)c1ccccc1,,inactive: -1.12%
Oc1ccc(/C=N/N=C(c2ccccc2)c2ccccc2)c(O)c1O,active: 6.7 µM,
CCc1nnc(NC(=O)CSc2sc3c(O)cc(=O)[nH]c3c2C#N)s1,active: 12.6 µM,
O=C(O)Cn1cc(/C=N/NC(=O)c2cc3cc(Br)ccc3o2)c2ccccc21,"inconclusive: 56.2 µM [inhibitor, partial curve]",
N#Cc1ccccc1N1CCN(C(=O)c2ccc(NC(=O)c3ccc(Br)o3)cc2)CC1,,inactive: -25.8%

Compound,Potency,"activity change, negative = inhibition"
CCc1cc(=O)oc2cc(C)c(CN3CCCC(C)C3)c(O)c12 (stereo not drawn),active: 35.5 µM,
O=C(Nc1cc(Br)c(O)c(Br)c1)c1cccc(NC(=O)c2ccco2)c1,,inactive: -17.2%
COc1ccccc1/C=C1\S/C(=N/NC(=O)c2cccc(Br)c2)NC1=O,"inconclusive: 16.8 µM [inhibitor, partial curve]",
CC(C)NC(=O)Nc1ccc2c(c1)C(=O)N([C@@H](C)CO)C[C@H](C)[C@H](CN(C)S(=O)(=O)c1ccccc1)OCCCC[C@H](C)O2,,inactive: 5.12%
O=C(COC(=O)Cc1ccc(Cl)c(Cl)c1)Nc1ccc2[nH]c(=O)[nH]c2c1,"inconclusive: 39.8 µM [inhibitor, single point]",
CN(CCc1ccccc1)C(=O)c1cccc(NC(=O)Cc2cccc(NC(=O)C3CCCN(C(=O)c4ccccc4)C3)c2)c1 (stereo not drawn),,inactive: 2.84%
O=C(c1ccco1)N1CCN(C(=O)c2ccc(-c3ccc([N+](=O)[O-])cc3)o2)CC1,"inconclusive: 63.1 µM [inhibitor, partial curve, poor fit]",
Cc1cc(C(=O)Nc2ccccc2N2CCCCC2)no1,"inconclusive: 10 µM [inhibitor, full curve, poor fit]",
COc1ccc(N(C(=O)Cc2cccs2)C2C=CS(=O)(=O)C2)cc1 (stereo not drawn),"inconclusive: 79.4 µM [inhibitor, partial curve]",
C=C(C)C(=O)Oc1ccc(N=Nc2ccc(C)cc2)ccc1=O,active: 39.8 µM,
Nc1ccccc1SC1CC(=O)N(c2ccc3c(c2)OCCO3)C1=O (stereo not drawn),"inconclusive: 5.62 µM [inhibitor, full curve, poor fit]",
Cc1ccc(S(=O)(=O)Nc2ccccc2C(=O)Nc2nc(-c3ccc(F)cc3)cs2)cc1,"inconclusive: 79.4 µM [inhibitor, partial curve]",
CN(C)S(=O)(=O)c1cccc(NC(=O)COc2cccc(C#N)c2)c1,"inconclusive: 39.8 µM [inhibitor, single point]",
COc1ccccc1NC(=S)NC(=O)/C=C/c1ccco1,"inconclusive: 56.2 µM [inhibitor, partial curve, poor fit]",
COc1cccc(-c2cc(NC=O)c3ncc(-c4cccc(C(=O)NCCN(C)C)c4)n3c2)c1,"inconclusive: 39.8 µM [inhibitor, single point]",
O=C(/C=C/c1ccco1)NC(=S)Nc1ccc(C(=O)O)cc1,"inconclusive: 44.7 µM [inhibitor, partial curve]",
Cc1ccc(Cl)cc1-c1ccc(C=Nc2ccc(N3CCOCC3)cc2)o1,"inconclusive: 31.6 µM [inhibitor, single point]",
Cc1cc(OCC(=O)Nc2ccc(N3CCN(C(=O)c4ccco4)CC3)cc2)cc(C)c1Cl,"inconclusive: 26.7 µM [inhibitor, partial curve]",
COC(=O)c1ccc2c(c1)NC(=O)C1CCCN21 (stereo not drawn),"inconclusive: 89.1 µM [inhibitor, single point]",
COc1ccc(C(=O)Nc2ccc(NC(=O)c3ccccc3OC)nc2)cc1,"inconclusive: 3.55 µM [inhibitor, partial curve, poor fit]",
C=CCn1c(SCC(=O)Nc2ccc(-c3nc4ccc(C)cc4s3)cc2)nnc1-c1ccccc1,"inconclusive: 50.1 µM [inhibitor, partial curve]",
CCC(=O)N(CCC(c1ccc(C)cc1)c1ccco1)Cc1ccco1 (stereo not drawn),"inconclusive: 50.1 µM [inhibitor, partial curve]",
Cc1ccc(NCc2nc(SCC(=O)Nc3ccccc3)n[nH]2)cc1,"inconclusive: 79.4 µM [inhibitor, single point]",

# By substructure, those above with a nitro group on carbon.
Compound,Potency,"activity change, negative = inhibition"
O=[N+]([O-])c1cccn2cc(-c3ccc(Br)cc3)nc12,"inconclusive: 39.8 µM [inhibitor, full curve, poor fit]",
O=[N+]([O-])c1ccccc1-c1ccc(C(=S)N2CCCC2)o1,"inconclusive: 89.1 µM [inhibitor, single point]",
CC(=O)Nc1ccc(C=NNc2ccc(S(=O)(=O)Nc3ccccc3C(=O)O)cc2[N+](=O)[O-])cc1,"inconclusive: 3.55 µM [inhibitor, full curve, poor fit]",
O=C(c1ccco1)N1CCN(C(=O)c2ccc(-c3ccc([N+](=O)[O-])cc3)o2)CC1,"inconclusive: 63.1 µM [inhibitor, partial curve, poor fit]",

# Further entries follow.

Compound,Potency,"activity change, negative = inhibition"
O=C1NC(=O)N2CCSC2(Cc2ccccc2)N1 (stereo not drawn),"inconclusive: 20 µM [inhibitor, single point]",
COc1cc(/C=C2\C(=O)N(CCC#N)N=C2C)ccc1OCC(=O)Nc1ccccc1,"inconclusive: 23.8 µM [inhibitor, partial curve]",
Cc1c(C(=O)N/N=C/c2ccc(O)c(Br)c2)sc(N)c1C#N,,inactive: -34.2%
C=CCOn1c(=O)c(-c2ccc(OC)cc2)[n+]([O-])c2ccccc21,,inactive: -6.98%
CN(C)CCO/N=C(\c1ccc(Br)cc1)c1cccnc1,"inconclusive: 39.8 µM [inhibitor, full curve, poor fit]",
O=C(NCc1ccncc1)c1ccc2nc(Cc3ccccc3F)oc2c1,"inconclusive: 79.4 µM [inhibitor, single point]",
Cc1ccnc(NC(=O)CNC(=O)COc2ccccc2)c1,"inconclusive: 39.8 µM [inhibitor, single point]",
CCOc1ccc(C2NC(=O)c3ccccc3O2)cc1OCC (stereo not drawn),"inconclusive: 10 µM [inhibitor, full curve, poor fit]",
Cc1ccc2[nH]c(O)c(N=Nc3ccccc3[N+](=O)[O-])c2c1,,inactive: -9.4%
CC1CCc2c(sc(Nc3nc4c(F)cccc4s3)c2C(N)=O)C1 (stereo not drawn),,inactive: -8.24%
Nc1c(C(=O)NCc2ccco2)sc2nc3c(cc12)C(=O)CCC3,"inconclusive: 44.7 µM [inhibitor, partial curve]",
CN(CC(=O)NCc1cccs1)S(=O)(=O)c1cccc2cccnc12,"inconclusive: 89.1 µM [inhibitor, single point]",
COc1c(O)cc2oc(-c3ccc(O)c(O)c3)cc(=O)c2c1O,active: 25.1 µM,
O=C(Nc1ccc(Cl)c(Cl)c1)N1CCCCCC1,,inactive: -1.96% [at 11.6 µM]
CC(Sc1nc2scc(-c3ccccc3)c2c(=O)[nH]1)C(=O)NC(N)=O (stereo not drawn),"inconclusive: 89.1 µM [inhibitor, single point]",
COC(=O)c1c(-c2ccccc2)csc1NC(=O)c1c(-c2ccccc2)noc1C,"inconclusive: 15.8 µM [inhibitor, single point]",
COCCCNc1c2c3c(cccc3[nH]c1=O)C(=O)c1ccccc1-2,active: 28.2 µM,
COc1ccc(C2NC(=S)NC3=C2CCCC3=C2SCCS2)cc1 (stereo not drawn),"inconclusive: 70.8 µM [inhibitor, single point]",
C#CCOCCOCCOCCNc1nc(N2CCN(C(=O)CCCCCCCCCCNC(=O)Cn3cc(CCCCCN)nn3)CC2)nc(N2CCN(C(=O)CCCCCCCCCCNC(=O)[C@H]([C@@H](C)CC)n3cc(CCCCCN)nn3)CC2)n1,active: 56.2 µM,
O=C1C(=O)N(c2ccccn2)C(c2cccc([N+](=O)[O-])c2)/C1=C(/O)c1ccc(Br)cc1 (stereo not drawn),,inactive: 2.58%
O=C(COC(=O)c1cnccn1)Nc1ncc(Cl)cc1Cl,"inconclusive: 50.1 µM [inhibitor, partial curve]",
CCOc1cc(/C=C(\C#N)C(=O)Nc2cccc(C(=O)O)c2)cc(Br)c1OC(=O)c1ccc(OC)cc1,"inconclusive: 56.2 µM [inhibitor, partial curve]",
